The values below come from article PMC5535836.

Sequences of proteins named here, by UniProt entry; tags and fusion partners are left off.
UniProt P10415: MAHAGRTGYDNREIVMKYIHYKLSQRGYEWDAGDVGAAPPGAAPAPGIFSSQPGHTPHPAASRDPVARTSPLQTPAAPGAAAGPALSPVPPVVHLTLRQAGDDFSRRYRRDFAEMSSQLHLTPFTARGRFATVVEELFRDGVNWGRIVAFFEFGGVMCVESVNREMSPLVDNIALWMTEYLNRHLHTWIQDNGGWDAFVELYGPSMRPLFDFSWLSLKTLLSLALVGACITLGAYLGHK
UniProt Q14457: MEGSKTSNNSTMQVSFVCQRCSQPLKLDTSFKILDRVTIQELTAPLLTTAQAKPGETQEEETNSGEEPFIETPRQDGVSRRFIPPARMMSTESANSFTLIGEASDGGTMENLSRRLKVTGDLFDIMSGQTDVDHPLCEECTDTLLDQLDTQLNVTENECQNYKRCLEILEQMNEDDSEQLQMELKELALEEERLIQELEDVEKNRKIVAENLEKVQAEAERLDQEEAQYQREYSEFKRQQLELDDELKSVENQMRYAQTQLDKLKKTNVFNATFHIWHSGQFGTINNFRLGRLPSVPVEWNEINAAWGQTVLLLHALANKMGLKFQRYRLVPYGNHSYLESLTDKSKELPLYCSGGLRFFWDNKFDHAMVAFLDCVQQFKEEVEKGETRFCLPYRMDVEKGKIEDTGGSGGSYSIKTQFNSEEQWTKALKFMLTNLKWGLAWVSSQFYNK

The target in the test is Bcl-2 (human (endogenous in NPC-TW01)) (UniProt P10415). As to the kind of experiment: co-IP; lysates of NPC-TW01 cells treated with 0, 100 or 200 µM capsaicin for 24 h; precipitated with anti-Bcl-2 antibodies (N19) and protein A/G plus agarose beads; Western blotting with anti-Beclin-1 or anti-Bcl-2 antibodies. In general terms: Immunoblotting shows a protein as a band on a membrane.

These are yes or no findings as the source states them, for the method shown. Binding seen in cells or lysates may run through a third protein. Some results given as binding are weak or reduced against the parent protein; the word gives no strength.

With Beclin-1 (from UniProt Q14457 1-450), the binding entry is reported as “binds”.
